Test results from ChEMBL document CHEMBL4428037 (J Med Chem, 2016).

Tested on: PC-3
Assay: Growth inhibition of human PC3 cells incubated for 72 hrs by MTT assay
Assay type: functional, cell-based
Conditions: PC-3, 72 h

Compound: COc1cc2c(c(OC)c1OC)-c1ccc(OC)c(=O)cc1[C@@H](NC(C)=O)CC2 [COLCHICINE]
- IC50: 0.015 µM
